Earlier results in patent US20200129630A1, “METHODS FOR TREATING CANCER” (BicycleRD Limited, priority 2018, published 2020).
Some entries share one result that the patent states for a list of compounds.

System: TNBC
Conditions: licensed third-line agents; cited from earlier work

For C=C1C[C@@H]2CC[C@@]34C[C@H]5O[C@H]6[C@@H](O3)[C@H]3O[C@H](CC[C@@H]3O[C@H]6[C@H]5O4)CC(=O)C[C@@H]3[C@@H](OC)[C@@H](C[C@H](O)CN)O[C@H]3C[C@H]3O[C@@H](CC[C@@H]1O2)C[C@@H](C)C3=C [eribulin], the ORR is listed as 9-12%.
